Taken from: PubChem BioAssay AID1053208 (Peter MacCallum Cancer Centre, 2014)
Screen: 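Find knock-downs that sensitise mouse osteosarcoma cells to doxorubicin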 (primary screen). Cell system: mouse osteosarcoma cells, early-passage culture from an engineered mouse model of fibroblastic bone tumour. Reagents: siRNA pool against mouse genes, 40 nM. Duration: about 120 h (48 h before drug, then 72 h with drug). Challenge: doxorubicin 100 nM for 72 h, roughly 30-40% inhibitory dose. Detection: 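Viability read as ATP luminescence after 72 h of 100 nM doxorubicin or none, duplicate wells averaged, scaled to non-targeting siRNA, then expressed as robust z-scores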. Reading the numbers: viability z-score with doxorubicin and doxorubicin viability vs non-targeting: higher = more viable cells under doxorubicin; viability z-score without drug: higher = more viable cells with knock-down alone; z-score of drug to no-drug ratio: higher = less drug sensitisation by knock-down. Rule for the call: 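a pool counts as active when its viability z-score with doxorubicin is -2 or below and its z-score without drug lies between -2 and 2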.
Here is an unselected part of about 17,000 reagents. 788 of all reagents (4.7%) count as active. 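Calls rest on z-score classes alone; an extra cut-off of viability at most 70% of control was not applied to them.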 Entries without a mark were called inactive.

no.	target	combined z-score class	viability z-score with doxorubicin	viability z-score without drug	z-score of drug to no-drug ratio	doxorubicin viability vs non-targeting
1	Gip (gastric inhibitory polypeptide)	no change with or without drug	-0.45	-0.17	-0.22	0.9
2	Serpina9	no change with or without drug	0.34	-0.84	1.12	0.97
3	Ell3 (elongation factor RNA polymerase II-like 3)	low cell count with doxorubicin only (active)	-2.36	1.01	-2.92	0.73
4	Snf8 (SNF8, ESCRT-II complex subunit, homolog (S. cerevisiae))	no change with or without drug	-0.11	0.51	-0.34	0.93
5	Npl (N-acetylneuraminate pyruvate lyase)	no change with or without drug	1.35	-1.18	2.47	1.06
6	Tmem121 (transmembrane protein 121)	no change with or without drug	1.8	1.52	0.9	1.1
7	Slc9a8	no change with or without drug	0.67	0.17	0.67	1
8	Rad51ap1 (RAD51 associated protein 1)	no change with or without drug	0	0.17	0	0.94
9	Vmn1r21 (vomeronasal 1 receptor 21)	no change with or without drug	-0.9	0.17	-0.9	0.86
10	Lysmd3 (LysM, putative peptidoglycan-binding, domain containing 3)	no change with or without drug	1.35	0.51	1.12	1.06
11	Zfp687 (zinc finger protein 687)	no change with or without drug	-0.45	-1.52	0.79	0.9
12	1700020N01Rik (RIKEN cDNA 1700020N01 gene)	no change with or without drug	0.45	-0.84	1.24	0.98
13	Kcnab3	no change with or without drug	-0.45	0.84	-0.9	0.9
14	Csn1s1 (casein alpha s1)	no change with or without drug	-0.45	-0.51	0	0.9
15	Cdhr4 (cadherin-related family member 4)	no change with or without drug	-0.67	1.52	-1.46	0.88
16	Cox8b (cytochrome c oxidase subunit 8B)	no change with or without drug	-1.12	-0.34	-0.9	0.84
17	Col8a1 (collagen, type VIII, alpha 1)	no change with or without drug	1.57	0.84	1.12	1.08
18	Alad (aminolevulinate, delta-, dehydratase)	no change with or without drug	-0.67	-1.52	0.45	0.88
19	Socs1 (suppressor of cytokine signaling 1)	high cell count with and without drug	2.25	2.19	0.9	1.14
20	Timm44 (translocase of inner mitochondrial membrane 44)	low cell count with doxorubicin only (active)	-3.6	0.34	-3.82	0.62
21	Rad23b (RAD23 homolog B, nucleotide excision repair protein)	no change with or without drug	0.56	-1.52	1.91	0.99
22	Unc45b (unc-45 myosin chaperone B)	no change with or without drug	-0.56	-0.84	0.11	0.89
23	Apbb3 (amyloid beta precursor protein binding family B member 3)	no change with or without drug	-1.12	-0.51	-0.79	0.84
24	Ddost (dolichyl-di-phosphooligosaccharide-protein glycotransferase)	no change with or without drug	0.34	0.67	0	0.97
25	Gabrd (gamma-aminobutyric acid (GABA) A receptor, subunit delta)	no change with or without drug	-1.8	0	-1.8	0.78
26	Tprg1l (transformation related protein 63 regulated 1 like)	no change with or without drug	-0.67	1.85	-1.69	0.88
27	Mcrs1 (microspherule protein 1)	no change with or without drug	0.9	1.01	0.34	1.02
28	Drc3 (dynein regulatory complex subunit 3)	no change with or without drug	0.22	1.18	-0.45	0.96
29	Iqcc (IQ motif containing C)	no change with or without drug	0.22	-0.84	1.01	0.96
30	Gipc2 (GIPC PDZ domain containing family, member 2)	no change with or without drug	0.34	1.18	-0.34	0.97
31	Ccm2 (cerebral cavernous malformation 2)	no change with or without drug	-0.79	0.84	-1.24	0.87
32	Rab20 (RAB20, member RAS oncogene family)	no change with or without drug	0.67	0.67	0.34	1
33	Vmn1r19 (vomeronasal 1 receptor 19)	low cell count with doxorubicin only (active)	-2.47	-0.84	-2.02	0.72
34	Acaa1b (acetyl-Coenzyme A acyltransferase 1B)	no change with or without drug	-0.45	0.17	-0.45	0.9

Hits, among the entries above:
target	combined z-score class	viability z-score with doxorubicin	viability z-score without drug	z-score of drug to no-drug ratio	doxorubicin viability vs non-targeting
Ell3 (elongation factor RNA polymerase II-like 3)	low cell count with doxorubicin only (active)	-2.36	1.01	-2.92	0.73
Timm44 (translocase of inner mitochondrial membrane 44)	low cell count with doxorubicin only (active)	-3.6	0.34	-3.82	0.62
Vmn1r19 (vomeronasal 1 receptor 19)	low cell count with doxorubicin only (active)	-2.47	-0.84	-2.02	0.72
